Assay results: PubChem BioAssay AID504467 (National Center for Advancing Translational Sciences (NCATS), 2011)
Out of some 330,000 compounds screened, about 7,700 (2.3%) were called active. The shares of active, inactive and inconclusive entries below differ from those in the screen. Calls follow the shape of the dose curve; as a rule, active = well fitted inhibition curve with a large enough effect; inconclusive = small, poorly fitted or top-dose-only effect, or effect the other way; inactive = flat fitted curve, though single readings scatter. A potency beside an inconclusive call is a rough fit, not a confirmed value.

Experiment: qHTS screen for small molecules that inhibit ELG1-dependent DNA repair in human embryonic kidney (HEK293T) cells expressing luciferase-tagged ELG1; also: nearly all actives have a fitted effect of over 55% in size
Details: HEK293T ELG1-luciferase reporter, luminescence, 16 h, DNA damage induced by 5-fluorouridine; activity change, negative = inhibition: at 46.1 µM (top of the series)
In short: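 Cells (2,000 per well) received 5-fluorouridine plus test compound or DMSO and were incubated 16 hr at 37 °C, 5% CO2. Luciferase activity was read by luminescence 30 min after ONE-Glo addition; signal suppression marked inhibition of damage-induced ELG1 function.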
% is scaled to controls: 0 for no effect and ±100 for the full control effect; potency is read from the fitted curve at half-maximal effect.

SMILES | Potency | activity change, negative = inhibition
CC(C)CCNC(=O)c1cnn2c(C(F)(F)F)cc(-c3ccco3)nc12 | inconclusive: 23.1 µM [inhibitor, single point] | –
Cn1ccnc1SCC(=O)Nc1ccc2ccccc2c1 | inconclusive: 4.61 µM [activator, partial curve] | –
CCC1(C)Cc2c(C#N)c(N)sc(=S)c2CO1 (stereo unspecified) | inactive | –
CC(=O)Oc1c(Cl)c(N2CCOCC2)c(OC(C)=O)c2ccccc12 | inconclusive: 23.1 µM [inhibitor, single point] | –
C=CCOc1ccc(/C=C/C(=O)OCC(=O)NCc2cccs2)cc1 | inconclusive: 5.8 µM [activator, partial curve] | –
COCCN(C)Cc1nc(C(c2ccccc2)c2ccccc2)no1 | inactive | –
C/C(=N/NC(=O)c1ccc(Br)s1)c1ccncc1 | inconclusive: 16.4 µM [activator, partial curve, poor fit] | –
Cc1[nH]c2ccccc2c1/C=N/NC(=O)CNC(=O)c1ccc2c(c1)OCCO2 | inconclusive: 2.91 µM [activator, partial curve, poor fit] | –
CCOc1cc(CNCCc2ccc(S(N)(=O)=O)cc2)ccc1OCC(=O)NC1CCCCC1 | inconclusive: 29.1 µM [inhibitor, single point] | –
C[C@H](NS(=O)(=O)c1ccc(Cl)cc1)C(=O)OCC(=O)NC(=O)Nc1ccc2c(c1)OCCO2 | inconclusive: 16.4 µM [activator, partial curve] | –
O=S(=O)(O)c1nc2ccccc2[nH]1 | inconclusive: 14.6 µM [activator, partial curve, poor fit] | –
CC1(C)Cc2c(sc3c2c(=O)n(Cc2ccccc2)c2nncn32)CO1 | inactive | –
Cc1ccc(-n2nc(C)c3c2OC(N)=C(C#N)C3c2ccco2)cc1 (stereo unspecified) | inconclusive: 35.5 µM [activator, single point] | –
CN=c1scc(C)n1/N=C/c1ccc(O)cc1O | inconclusive: 1.3 µM [activator, partial curve] | –
Cc1cc(C(=O)CSc2ncn[nH]2)c(C)n1-c1cccc(S(=O)(=O)N2CCOCC2)c1 | inconclusive: 32.6 µM [inhibitor, single point] | –
CCC(CO)Oc1cc(NCc2ccccc2OC)c2ncn(C(C)C)c2c1 (stereo unspecified) | inconclusive: 5.8 µM [inhibitor, full curve] | –
C/C(=N\NC(=O)c1c(Br)c(C)nn1C)c1cccc(NC(=O)c2ccccc2C)c1 | inconclusive: 29.1 µM [inhibitor, single point] | –
O=C(Oc1cccc(/C=N/Nc2nc(N3CCOCC3)nc(N3CCOCC3)n2)c1)c1ccco1 | inconclusive: 16.4 µM [inhibitor, partial curve] | –
O=c1[nH]cnc2cc(-c3ccc(Br)cc3)sc12 | inconclusive: 11.6 µM [activator, partial curve] | –
CCCSC1=C(C#N)C(c2cccs2)C(C(=O)Nc2ccccc2)=C(C)N1 (stereo unspecified) | inconclusive: 9.2 µM [inhibitor, partial curve] | –
CS(=O)(=O)Nc1ccc(-c2n[nH]c(=S)n2-c2ccccc2)cc1 | inactive | –
Cc1ccccc1NC(=O)c1cn(-c2ccccc2)nc1-c1ccccc1 | inconclusive: 20.6 µM [inhibitor, single point] | –

Arranged by SMILES length (ascending): part of the list above.
SMILES | Potency | activity change, negative = inhibition
O=S(=O)(O)c1nc2ccccc2[nH]1 | inconclusive: 14.6 µM [activator, partial curve, poor fit] | –
CCC(CO)Oc1cc(NCc2ccccc2OC)c2ncn(C(C)C)c2c1 (stereo unspecified) | inconclusive: 5.8 µM [inhibitor, full curve] | –
CCCSC1=C(C#N)C(c2cccs2)C(C(=O)Nc2ccccc2)=C(C)N1 (stereo unspecified) | inconclusive: 9.2 µM [inhibitor, partial curve] | –

Next compounds:

SMILES | Potency | activity change, negative = inhibition
Clc1ccc(C2=Nc3cc(Cl)ccc3OC2)cc1 | inconclusive: 23.1 µM [activator, single point] | –
CC(NC(=O)CSc1nnc(-c2cccc(S(=O)(=O)N3CCCCC3)c2)o1)C12CC3CC(CC(C3)C1)C2 (stereo unspecified) | inconclusive: 25.9 µM [inhibitor, single point] | –
O=C(NCCCNc1ccc(C(F)(F)F)cc1[N+](=O)[O-])c1cc(F)c(F)cc1Cl | inconclusive: 23.1 µM [inhibitor, partial curve, poor fit] | –
Cc1ccccc1-c1ccnc2[nH]n(-c3ccccc3)c(=O)c12 | inactive | –
C/C(=N\NC(=O)c1nc2ccccn2c1C)c1cc2ccccc2o1 | inactive | –
Cc1cccc(COCC(CC(C)C)N2CCN(C(=O)c3ccc(C(C)(C)C)cc3)CCC2=O)c1 (stereo unspecified) | inconclusive: 23.1 µM [inhibitor, single point] | –
CN(C(=O)/C=C/c1cnc2ccccc2c1)C1CCCCC1 | inconclusive: 0.73 µM [activator, full curve] | –
O=C(/C=C/c1ccc(NC(=O)c2ccccc2-c2ccccc2C(=O)O)cc1)c1ccccc1 | inactive | –
N#C/C(=C/c1ccc(OCc2ccccc2)cc1)C(=O)NC1CCCCC1 | inactive | –
CCCNC(=O)Cn1cnc([N+](=O)[O-])n1 | inconclusive: 23.1 µM [activator, partial curve, poor fit] | –
O=C(/C=C/c1cccs1)Nc1ccc(S(=O)(=O)Nc2ncccn2)cc1 | inactive | –
Cc1nnc(NC(=O)c2ccccc2F)s1 | inconclusive: 11.2 µM [activator, partial curve, poor fit] | –
COc1ccc(/C=N/NC(=O)c2cc(-c3ccc(C)cc3C)nc3ccccc23)cc1COC(C)=O | inactive | –
Cc1csc(NC(=O)c2cc(C)on2)n1 | inconclusive: 10.3 µM [activator, partial curve] | –
CCN(CCS(=O)(=O)c1ccc(Br)cc1)Cc1nc2ccccc2c(=O)[nH]1 | inconclusive: 25.9 µM [inhibitor, single point] | –
CCN(C[C@H]1N[C@@](CC)(C(=O)OC)[C@H]2C(=O)N(C)C(=O)[C@@H]12)C(=O)Nc1ccccc1 | inactive | –
COc1ccc(/C=C/c2ccc3c(Br)ccc(O)c3n2)cc1 | inconclusive: 18.3 µM [activator, partial curve] | –
O=[N+]([O-])c1nn(-c2ccc3c(c2)OCCO3)n(O)c1=NCCC1=CCCCC1 | inconclusive: 11.6 µM [activator, partial curve] | –
O=C(O)CCC(=O)Nc1ccc(-n2ccc(C(F)(F)F)n2)cc1 | – | inconclusive: 100% [activator]
Cc1ccc(C)n1-c1ccc(C(=O)O)cc1 | inconclusive: 23.1 µM [activator, partial curve, poor fit] | –
Cn1cnnc1SCC(=O)NCc1cccc(C(F)(F)F)c1 | inconclusive: 18.4 µM [activator, partial curve, poor fit] | –
COc1cc(/C=C/c2nc(N)nc(-c3ccccc3O)n2)cc(OC)c1OC | active: 2.91 µM | –

SMILES | Potency | activity change, negative = inhibition
Cc1ccc2oc(C(=O)N(Cc3ccc(N(C)C)cc3)CC3CCCO3)c(C)c2c1 (stereo unspecified) | inconclusive: 32.6 µM [inhibitor, partial curve, poor fit] | –
CCN(CCCNC(=O)CC(C(=O)N1CCc2ccccc21)n1ccnc1)c1cccc(C)c1 (stereo unspecified) | inconclusive: 29.1 µM [inhibitor, single point] | –
COc1ccc(-c2cn[nH]c2-c2ccc(OCc3ccccc3)cc2O)cc1 | active: 20.6 µM | –
COc1cc(C(=S)N2CCOCC2)ccc1OS(=O)(=O)c1ccc(NC(C)=O)cc1 | active: 11.6 µM | –
CC(=O)Nc1ccc2c(c1)nc(CCN1CCN(c3ccccn3)CC1)n2C | inactive | –
O=C1N/C(=C\c2ccc(O)cc2)C(O)=C1C=NCc1ccccc1 | inconclusive: 16.4 µM [activator, single point] | –
C/C(=N\NC(=O)Nc1ccccc1)c1ccc2ccccc2c1 | inactive | –
Cn1c(CS(=O)Cc2c(Cl)cccc2Cl)nnc1SCc1ccc(Cl)cc1 (stereo unspecified) | inconclusive: 16.4 µM [inhibitor, single point] | –
CC/C(=N\Nc1nncc2ccccc12)c1ccc(F)cc1 | inconclusive: 20.6 µM [activator, partial curve] | –
COc1ccc(CCNC(=O)CN(Cc2ccc(Cl)cc2)S(C)(=O)=O)cc1 | inconclusive: 16.4 µM [inhibitor, partial curve, poor fit] | –
CCCC(=O)NCc1cc(-c2nn(C)c(=O)c3ccccc23)ccc1OC | inconclusive: 18.3 µM [activator, single point] | –
CCOc1ccc(NS(=O)(=O)c2ccc3[nH]cc(C(=O)N(CC)CC)c(=O)c3c2)cc1 | inconclusive: 2.06 µM [activator, partial curve] | –
COc1ccc(Nc2ncc3c(n2)CC(c2ccc(C)cc2)CC3=O)cc1 (stereo unspecified) | inconclusive: 35.5 µM [inhibitor, single point] | –
N=C1C(c2nc(-c3ccc(F)cc3)cs2)=C(O)CN1Cc1ccc(Cl)cc1 | inconclusive: 16.4 µM [activator, partial curve, poor fit] | –
O=c1cc(N2CCN(c3ccccc3Cl)CC2)[nH]c(=O)n1Cc1ccc(F)cc1 | inconclusive: 2.31 µM [inhibitor, partial curve] | –
CC(O)C(O)C(O)C(O)/C=N/NC(=O)c1ccccc1 (stereo unspecified) | inconclusive: 25.9 µM [activator, single point] | –
O=S(=O)(c1cc(Cl)ccc1Cl)N1CC2CCCN2c2ccc(C(F)(F)F)cc21 (stereo unspecified) | inconclusive: 6.31 µM [inhibitor, single point] | –
Cc1nc2ccc(F)cc2cc1C(=O)NCc1ccco1 | inactive | –
CCSc1nnc(NC(=O)CSc2nc3c(cc2C#N)CCCC3)s1 | inconclusive: 14.6 µM [activator, partial curve] | –
CC(=O)Nc1ccc(CN2CCC(CO)(CCOc3ccccc3)CC2)cc1 | inconclusive: 32.6 µM [activator, partial curve, poor fit] | –
Cn1c(CCNC(=O)c2ccc(Cl)cc2)n[nH]c1=S | inconclusive: 23.1 µM [activator, single point] | –
COc1ccc(NC(=O)CSCC(=O)N(C)Cc2ccc(Cl)c(Cl)c2)cc1 | inconclusive: 29.1 µM [inhibitor, single point] | –
